Measurements taken from paper PMC8429728, “TNK1 is a ubiquitin-binding and 14-3-3-regulated kinase that can be targeted to block tumor growth” (Nature Communications, 2021).
These are yes or no findings as the source states them, for the method shown. For some assays here: In cells and extracts the contact can be indirect. For some assays here: Where a sequence is shown, tags or fusion partners need not be part of it.

Assays:
[1] = target: phospho-binding defective 14-3-3 (K49Q); test: co-IP; co-IP of TNK1 with 14-3-3 (K49Q), Supplementary Fig. 2f; which partner was precipitated is not told
His-14-3-3ζ = test: FRET or BRET; His-14-3-3ζ 12 nM with Europium-anti-His antibody 0.75 nM and Cy5 peptides at 10, 5 and 1 µM; 20 mM Tris pH 7.4, 0.1% Nonidet P40, 50 mM NaCl, BSA; 2 h at room temperature; 384-well plate; both purified

| binding [1] | binding (His-14-3-3ζ) | Binder |
| --- | --- | --- |
| no binding | – | FLAG-TNK1 (wild type) (enzyme, UniProt Q13470 1-666) MLPEAGSLWLLKLLRDIQLAQFYWPILEELNVTRPEHFDFVKPEDLDGIGMGRPAQRRLSEALKRLRSGPKSKNWVYKILGGFAPEHKEPTLPSDSPRHLPEPEGGLKCLIPEGAVCRGELLGSGCFGVVHRGLWTLPSGKSVPVAVKSLRVGPEGPMGTELGDFLREVSVMMNLEHPHVLRLHGLVLGQPLQMVMELAPLGSLHARLTAPAPTPPLLVALLCLFLRQLAGAMAYLGARGLVHRDLATRNLLLASPRTIKVADFGLVRPLGGARGRYVMGGPRPIPYAWCAPESLRHGAFSSASDVWMFGVTLWEMFSGGEEPWAGVPPYLILQRLEDRARLPRPPLCSRALYSLALRCWAPHPADRPSFSHLEGLLQEAGPSEACCVRDVTEPGALRMETGDPITVIEGSSSFHSPDSTIWKGQNGRTFKVGSFPASAVTLADAGGLPATRPVHRGTPARGDQHPGSIDGDRKKANLWDAPPARGQRRNMPLERMKGISRSLESVLSLGPRPTGGGSSPPEIRQARAVPQGPPGLPPRPPLSSSSPQPSQPSRERLPWPKRKPPHNHPMGMPGARKAAALSGGLLSDPELQRKIMEVELSVHGVTHQECQTALGATGGDVVSAIRNLKVDQLFHLSSRSRADCWRILEHYQWDLSAASRYVLARP |
| – | no binding (tested: 10 µM) | CRMKGISRSLESVLSLGP (Cy5 maleimide on the N-terminal cysteine; C-terminal amide) [Cy5-TNK1 peptide (non-phosphorylated)] |
